# Drug screen on melanoma cell lines: cell count

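Human melanoma cell lines in 1,536-well plates were treated with a pair of drugs for 72 h, then fixed, stained and imaged. Values are the number of DAPI-stained nuclei as a percentage of the DMSO control: 100 is no effect, lower means fewer cells. Every drug was used at one fixed concentration, the lower of two screened (a fifth of the higher). These are primary screening values without error estimates.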 An unselected part of the screen is shown.

Compounds and concentrations:
VX-702: NC(=O)c1ccc(N(C(N)=O)c2c(F)cccc2F)nc1-c1ccc(F)cc1F at 0.4 µM
GW441756: Cn1cc(/C=C2\C(=O)Nc3cccnc32)c2ccccc21 at 0.4 µM
T0901317: O=S(=O)(c1ccccc1)N(CC(F)(F)F)c1ccc(C(O)(C(F)(F)F)C(F)(F)F)cc1 at 1.4 µM
cediranib: COc1cc2c(Oc3ccc4[nH]c(C)cc4c3F)ncnc2cc1OCCCN1CCCC1 at 0.4 µM
PF-04217903: OCCn1cc(-c2cnc3nnn(Cc4ccc5ncccc5c4)c3n2)cn1 at 1 µM
palbociclib: CC(=O)c1c(C)c2cnc(Nc3ccc(N4CCNCC4)cn3)nc2n(C2CCCC2)c1=O at 0.04 µM
SNS-314: O=C(Nc1cccc(Cl)c1)Nc1ncc(CCNc2ncnc3ccsc23)s1 at 0.0008 µM
docetaxel: CC(=O)O[C@@]12CO[C@@H]1C[C@H](O)[C@@]1(C)C(=O)[C@H](O)C3=C(C)[C@@H](OC(=O)[C@H](O)[C@@H](NC(=O)OC(C)(C)C)c4ccccc4)C[C@@](O)([C@@H](OC(=O)c4ccccc4)[C@H]21)C3(C)C at 0.0001 µM
sunitinib: CCN(CC)CCNC(=O)c1c(C)[nH]c(/C=C2\C(=O)Nc3ccc(F)cc32)c1C at 0.4 µM
fingolimod: CCCCCCCCc1ccc(CCC(N)(CO)CO)cc1 at 2 µM
XAV939: Oc1nc(-c2ccc(C(F)(F)F)cc2)nc2c1CSCC2 at 2 µM
indole-3-carbinol: OCc1c[nH]c2ccccc12 at 0.8 µM
OSI-906: C[C@]1(O)C[C@@H](c2nc(-c3ccc4ccc(-c5ccccc5)nc4c3)c3c(N)nccn32)C1 at 0.4 µM
dovitinib: CN1CCN(c2ccc3nc(-c4c(N)c5c(F)cccc5[nH]c4=O)[nH]c3c2)CC1 at 0.1 µM
RKI-983: C[C@@H](N)c1ccc(C(=O)Nc2ccnc3[nH]ccc23)cc1 at 0.4 µM
gemcitabine: Nc1ccn([C@@H]2O[C@H](CO)[C@@H](O)C2(F)F)c(=O)n1 at 0.0004 µM
bortezomib: CC(C)C[C@H](NC(=O)[C@H](Cc1ccccc1)NC(=O)c1cnccn1)B(O)O at 0.001 µM
cisplatin: N.N.[Cl][Pt][Cl] at 1.6 µM

* PF-04217903 and indole-3-carbinol | A2058: 98.2; G-361: 120; COLO 829: 111; IPC-298: 110
* SNS-314 and T0901317 | A2058: 106; G-361: 99.0; COLO 829: 78.6; IPC-298: 92.6
* OSI-906 and RKI-983 | A2058: 64.5; G-361: 98.9; COLO 829: 91.0; IPC-298: 86.1
* SNS-314 and GW441756 | A2058: 98.4; G-361: 100; COLO 829: 89.0; IPC-298: 101
* OSI-906 and XAV939 | A2058: 94.8; G-361: 75.8; COLO 829: 95.5; IPC-298: 93.0
* fingolimod and XAV939 | A2058: 85.1; G-361: 86.2; COLO 829: 105; IPC-298: 101
* palbociclib and T0901317 | A2058: 90.2; G-361: 78.6; COLO 829: 102; IPC-298: 75.8
* fingolimod and gemcitabine | A2058: 80.9; G-361: 96.7; COLO 829: 86.8; IPC-298: 92.5
* gemcitabine and SNS-314 | A2058: 104; G-361: 85.1; COLO 829: 88.2; IPC-298: 93.7
* RKI-983 and VX-702 | A2058: 70.7; G-361: 105; COLO 829: 82.5; IPC-298: 96.4
* bortezomib and RKI-983 | A2058: 77.1; G-361: 17.4; COLO 829: 86.9; IPC-298: 88.1
* docetaxel and PF-04217903 | A2058: 9.1; G-361: 25.9; COLO 829: 46.3; IPC-298: 58.3
* docetaxel and dovitinib | A2058: 11.2; G-361: 20.0; COLO 829: 52.1; IPC-298: 62.3
* XAV939 and docetaxel | A2058: 7.3; G-361: 32.5; COLO 829: 61.5; IPC-298: 59.9
* indole-3-carbinol and palbociclib | A2058: 105; G-361: 95.6; COLO 829: 82.9; IPC-298: 90.4
* T0901317 and OSI-906 | A2058: 99.7; G-361: 96.5; COLO 829: 83.0; IPC-298: 85.2
* XAV939 and SNS-314 | A2058: 91.6; G-361: 82.7; COLO 829: 86.1; IPC-298: 89.7
* SNS-314 and palbociclib | A2058: 116; G-361: 87.1; COLO 829: 99.6; IPC-298: 82.4
* PF-04217903 and T0901317 | A2058: 101; G-361: 89.9; COLO 829: 68.5; IPC-298: 93.8
* gemcitabine and cisplatin | A2058: 99.0; G-361: 96.2; COLO 829: 80.9; IPC-298: 105
* palbociclib and RKI-983 | A2058: 81.5; G-361: 74.0; COLO 829: 82.2; IPC-298: 93.9
* docetaxel and SNS-314 | A2058: 9.0; G-361: 26.1; COLO 829: 49.3; IPC-298: 67.7
* fingolimod and sunitinib | A2058: 93.4; G-361: 109; COLO 829: 98.5; IPC-298: 99.4
* indole-3-carbinol and GW441756 | A2058: 109; G-361: 110; COLO 829: 91.4; IPC-298: 100
* sunitinib and cediranib | A2058: 97.0; G-361: 101; COLO 829: 119; IPC-298: 102
* cediranib and XAV939 | A2058: 86.8; G-361: 95.9; COLO 829: 79.0; IPC-298: 107
* indole-3-carbinol and docetaxel | A2058: 9.3; G-361: 31.7; COLO 829: 51.0; IPC-298: 68.6
* indole-3-carbinol and bortezomib | A2058: 105; G-361: 8.4; COLO 829: 76.0; IPC-298: 83.3
* cisplatin and sunitinib | A2058: 127; G-361: 91.5; COLO 829: 113; IPC-298: 97.8
* VX-702 and dovitinib | A2058: 95.0; G-361: 118; COLO 829: 83.5; IPC-298: 102
* GW441756 and cediranib | A2058: 95.9; G-361: 104; COLO 829: 106; IPC-298: 105
* RKI-983 and dovitinib | A2058: 86.6; G-361: 102; COLO 829: 89.9; IPC-298: 93.2
* GW441756 and VX-702 | A2058: 105; G-361: 104; COLO 829: 116; IPC-298: 101
* indole-3-carbinol and VX-702 | A2058: 99.5; G-361: 78.5; COLO 829: 65.0; IPC-298: 95.7
* gemcitabine and VX-702 | A2058: 114; G-361: 82.4; COLO 829: 79.3; IPC-298: 84.8
* bortezomib and dovitinib | A2058: 75.7; G-361: 1.5; COLO 829: 38.3; IPC-298: 53.5
* bortezomib and T0901317 | A2058: 83.3; G-361: 4.6; COLO 829: 53.1; IPC-298: 57.7

Some entries from above, unchanged:

Pair	A2058	G-361	COLO 829	IPC-298
sunitinib and cediranib	97.0	101	119	102
T0901317 and OSI-906	99.7	96.5	83.0	85.2
VX-702 and dovitinib	95.0	118	83.5	102
palbociclib and RKI-983	81.5	74.0	82.2	93.9
indole-3-carbinol and bortezomib	105	8.4	76.0	83.3

From a melanoma drug combination screen (doi:10.1371/journal.pone.0140310); values rounded.